# Primary screen of a compound library

The chains behind the UniProt entries cited, without tags or fusion partners.
UniProt E9BF75, entry or part of it: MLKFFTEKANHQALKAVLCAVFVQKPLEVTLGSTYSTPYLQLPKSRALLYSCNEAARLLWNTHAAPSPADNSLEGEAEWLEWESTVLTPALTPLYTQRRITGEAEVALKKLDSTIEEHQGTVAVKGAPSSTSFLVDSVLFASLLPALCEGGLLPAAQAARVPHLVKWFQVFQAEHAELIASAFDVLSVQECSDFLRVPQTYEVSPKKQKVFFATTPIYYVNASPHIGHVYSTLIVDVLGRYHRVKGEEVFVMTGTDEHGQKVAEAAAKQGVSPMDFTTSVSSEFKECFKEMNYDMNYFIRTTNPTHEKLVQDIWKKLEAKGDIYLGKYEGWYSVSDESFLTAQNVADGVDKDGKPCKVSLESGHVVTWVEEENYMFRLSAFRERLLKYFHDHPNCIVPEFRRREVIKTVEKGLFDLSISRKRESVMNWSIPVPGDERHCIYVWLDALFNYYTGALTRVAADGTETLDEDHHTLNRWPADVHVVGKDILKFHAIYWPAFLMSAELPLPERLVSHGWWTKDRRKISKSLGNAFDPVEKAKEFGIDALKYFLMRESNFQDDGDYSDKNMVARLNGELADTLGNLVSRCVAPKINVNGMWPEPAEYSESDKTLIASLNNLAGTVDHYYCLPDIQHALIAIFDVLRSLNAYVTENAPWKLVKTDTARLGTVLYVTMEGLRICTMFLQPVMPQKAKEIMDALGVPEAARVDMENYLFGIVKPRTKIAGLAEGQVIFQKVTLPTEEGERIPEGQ

Data taken from ChEMBL document CHEMBL3988442, “University of Dundee, Small-Polar-MMV Screening Library” (2021).

All values are in %.
The record does not define 0% and 100%; most values in the screen are far below 50% and negative numbers occur (in some assays of this library far below -100).
This is an unselected part of the compounds tested.
A dash means the value is not listed here; it may have been measured.

LdMetRS: 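Primary screen of methionyl-tRNA synthetase; the read-out is not stated. Target: Methionyl-tRNA synthetase (putative), Leishmania donovani (UniProt E9BF75). The test concentration is not given. The values are filed as inhibition. Of about 68,000 compounds tested this way, about 24 (0.035%) reached 50% or more in at least one test.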
Mtb heat-shock: 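Assay on Mycobacterium tuberculosis, filed only as a heat shock assay from Cornell; the read-out is not stated. The concentration is filed as 10 mM, unlikely as a test dose, so the dose is not known. The record gives no direction; compounds that gave an IC50 in retests scored well above the rest, so higher reads as stronger inhibition. About 69,000 compounds were tested under these conditions; 1.4% (about 930) showed 50% or more at least once.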

SMILES,LdMetRS,Mtb heat-shock
CCOc1ncnc2c1CCN(C(=O)c1ccncc1F)CC2,18.73%,-
CN(Cc1cccc2ncccc12)C(=O)CCC(F)(F)F,6.115%,10.13%
Cl.O=C(CCC1CCCC1)NCCn1nc(C2CCNC2)c2nccnc21 (configuration not stated),-,-8.395%
Cc1ccc(CN2CCCn3cnc(COCC4CC4)c3C2)o1.O=C(O)C(F)(F)F,-,-33.04%
CSc1nc(N)cc(N2C[C@@H]3CC[C@H](C2)N(Cc2cscn2)C3=O)n1,6.948%,-
COc1c(CNCc2ccc(CN(C)C)cc2)c(C)nn1C,4.861%,-14.1%
Cl.Cl.[H][C@@]12CN(Cc3ccccc3)C[C@]1([H])[C@@H]2CN,-,-9.196%
CCc1nc(NS(=O)(=O)c2ccc(C)cc2Cl)no1,11.71%,-0.3615%
[H][C@@]12CCN(C(=O)c3ccnnc3)C[C@@]1([H])O[C@H](c1nc(C)cs1)C2,-,-3.289%
CC(C)(C)c1cnc(CN2C(=O)CC3(CCSC3)C2=O)o1 (configuration not stated),8.696%,20.24%
[H][C@@]12CN(c3ccc(C)nn3)C[C@@H](C(=O)NCc3ccco3)[C@]1([H])CCO2,-,-10.59%
CCCc1nccn1-c1ccc(C(O)CN2CCOCC2)cc1 (configuration not stated),5.282%,-5.647%
CN(C)CC1CN(Cc2ccsc2)Cc2nccn2C1.O=C(O)C(F)(F)F.O=C(O)C(F)(F)F (configuration not stated),-,-1.753%
Nc1ccc(-c2cnc(C3CCCN3)cn2)cn1 (configuration not stated),9.627%,-
C[C@H]1CN2C[C@H](O)CC2CN1Cc1ccc2nccnc2c1 (some centres not stated),1.575%,-
COc1ccc(CN2CCOC[C@H](Oc3cccnc3)C2)cc1,4.407%,-38.5%
CN(C)C[C@H]1OC[C@@H]2CCN(S(=O)(=O)c3cccs3)C[C@@H]21,6.438%,-
Cc1cnn(C2CCCN(C(=O)c3ccc(-n4ccnc4)cc3)C2)c1 (configuration not stated),20.51%,-15.19%
CC(=O)Nc1nc(C(=O)NCCOc2cccc(F)c2)cs1,9.699%,-7.031%
[H][C@@]12CCN(C[C@@H]1CN(CC)CC)[C@@H](CNC(=O)Nc1ccsc1)C2,-,-17.07%
Cc1nn(C)c(N(C)C)c1CNCc1ccc(N(C)C)nc1,10.68%,18.49%
Cc1noc(C)c1C(=O)N1C[C@@H]2C[C@@H](c3ccncn3)O[C@@H]2C1,9.15%,-
COCC(C)N(C)C(=O)CCc1c(C)nc2c(C#N)cnn2c1C (configuration not stated),11.87%,-9.852%
O=c1n(Cc2ccc(F)cc2)nc2ncccn12,7.859%,4.748%
CC(C)N1CCN(C(=O)c2csc3nc(-c4ccc(Cl)cc4)cn23)CC1,14.93%,2.331%
CN1CC(=O)N(c2ccccc2)CC12CCN(CC1CC1)C2.O=C(O)C(F)(F)F.O=C(O)C(F)(F)F (configuration not stated),-,4.085%
O=C(NCCc1cc2nc(-c3ccncc3)ccn2n1)C1CC1,7.188%,0.038%
O=C(CN1CCOC(Cn2cncn2)C1)NC(C1CC1)C1CC1 (configuration not stated),4.982%,-11.7%
CC1=C[C@@H](CC#N)[C@H](C(C)C)C[C@H]1CC(=O)N1CCN(C)CC1,-4.945%,-6.353%
O=C(O)c1ccccc1-n1cc(CN2CCOC(c3cc[nH]n3)C2)cn1 (configuration not stated),9.969%,0.01855%
Cc1nc(CN2CCN(Cc3cc4n(n3)CCNC4)CC2)cs1,2.903%,-16.14%
Cc1nc2cc(C3CCOCC3)nn2c(NCC2COCCO2)c1C (configuration not stated),6.977%,-8.543%
CN(C)CCN1CCN(C)c2nc(-c3ccccc3)ncc2C1=O,6.553%,-17.49%
Cn1cc(CCC(=O)N2CCCC(n3cncn3)C2)cn1 (configuration not stated),16.47%,-14.89%
Cc1ncc(Cl)c(C(=O)N2CCCC(n3nc(C)nc3C)C2)n1 (configuration not stated),15.26%,20.77%
CCCS(=O)(=O)N1CCC2(CN(c3ccccc3)C(=O)CN2C)C1 (configuration not stated),10.18%,-
O=C(c1ccsc1)N1CCC2(CC1)CCN(S(=O)(=O)C1CC1)CC2,11.14%,38.29%
Cn1ccnc1CNc1ccc(F)c(N2CCCS2(=O)=O)c1,5.108%,-25.6%
Cc1nc(CN2CCCC(c3cc(C(F)(F)F)[nH]n3)C2)cs1 (configuration not stated),17.63%,46.49%
COc1ccc(C)cc1S(=O)(=O)NCCC(O)c1ccccc1 (configuration not stated),14.29%,-12.97%
O=C(Cc1ccccc1)N1CCC(c2nnc(-c3ccccn3)o2)CC1,9.062%,-20.37%
O=C1NCCCCC1Sc1nnc(-c2cccnc2)n1C1CC1 (configuration not stated),8.374%,17.45%
Cn1cc(C(=O)N2CCCC2c2ccc3c(c2)OCO3)ccc1=O (configuration not stated),-,11.73%
Cn1nc(-c2ccc(F)cc2)cc1C(=O)NCCn1ccnc1,18.35%,-19.45%
CCC(C)C(=O)NCc1c(C)nn(C)c1N1CCCN(C)CC1 (configuration not stated),15.14%,-5.086%
O=C(NCCc1c[nH]cn1)c1n[nH]c2c1CCC2,17.69%,6.591%
COc1ccc(OCC(=O)NS(=O)(=O)c2cc(F)ccc2F)cc1,6.884%,-7.532%
O=C1CC(c2ccco2)c2sc(C(=O)O)c(-c3ccccc3)c2N1 (configuration not stated),19.26%,32.99%
CC(O)CN(C)C(=O)CCNC(=O)OC(C)(C)C (configuration not stated),15.89%,5.614%
O=C(O)C(F)(F)F.O=C1CC2(CCN(CC3CC3)C2)CN1c1ccc2c(c1)OCO2 (configuration not stated),-,-6.467%
CCc1ccc(CNC(=O)Nc2cc(C)on2)s1,10.6%,10.66%
Clc1cccc(-n2cnnn2)c1N1CCOCC1,2.089%,-3.287%
O=C(CSC1CCc2ccccc2NC1=O)Nc1ccc(CCO)cc1 (configuration not stated),10.7%,-1.763%
[H][C@]12CC[C@]([H])(CN(S(=O)(=O)CCC)C1)N(Cc1cscn1)C2=O,-,-9.823%
Cc1ccc(CNC(=O)CN2CCN(CC(O)C3CC3)CC2)cc1.Cl.Cl (configuration not stated),-,-12.32%
CC(C)NC(=O)N1CCCC(Cn2cc(-c3ccc(F)cc3)nn2)C1 (configuration not stated),3.553%,-12.63%
[H][C@]12CC[C@]([H])(CN(Cc3cscn3)C1)N(C(=O)Cc1ccccc1OC)C2,-,-0.01818%
CCn1cc(S(=O)(=O)N(CCc2ccccc2)Cc2ccn(C)n2)cn1,23.87%,-32.02%
CCN(Cc1cccc2c1OCO2)C(=O)C(C)c1cccnc1 (configuration not stated),10.1%,8.597%